Laboratory results from US20210230273A1 (Alexion, published 2021).
Where a chain is given by its changes, count along the chain named. Results are given in words; binding and its absence hold for the method and conditions named. Some entries that bind do so weakly or less than the wild type.

What was measured:
cell surface CD200 [1] = molecular target: T1, cell surface CD200 (human, UniProt P41217 31-278); experiment: flow cytometry, labelled antibody on CD200 expressing Raji cells
T1 construct: whole, on cells; also called CD200 on CD200 expressing Raji cells; CD200+ Raji cells
T1 sequence (looked up): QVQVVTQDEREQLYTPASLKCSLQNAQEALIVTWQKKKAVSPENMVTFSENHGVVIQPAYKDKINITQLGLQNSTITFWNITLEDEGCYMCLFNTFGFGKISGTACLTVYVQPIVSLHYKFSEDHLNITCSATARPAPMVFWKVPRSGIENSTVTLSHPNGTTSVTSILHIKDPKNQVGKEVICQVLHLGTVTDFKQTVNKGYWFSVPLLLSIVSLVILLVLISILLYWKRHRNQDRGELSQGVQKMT

cell surface CD200 [2] = molecular target: T1, cell surface CD200; experiment: whole-blood receptor occupancy by flow cytometry, B cells (CD19+) and T cells (CD3+)
cell surface CD200 [3] = molecular target: T1, cell surface CD200; experiment: flow cytometry, labelled antibody on CD200 expressing Raji cells; y axis % CD200 molecules bound
cell surface CD200 [4] = molecular target: T1, cell surface CD200; experiment: whole-blood CD200 receptor occupancy by flow cytometry, T cells (CD3+); unlabelled antibody incubated overnight, free CD200 against total CD200 (1B2-AF647)
Protocol: (§1) Whole blood (including sodium heparin as anticoagulant) was added at 250 μL/FACs tube and sealed. Tubes were incubated at 25° C. in a temperature-controlled cabinet overnight to allow therapeutic antibody binding.
(§2) FACS Antibody Staining: Cells were blocked with Fc blocking reagent for 30 min. Red blood cells were lysed with hemolytic buffer; remaining cells were spun 800×g for 5 minutes, and the resulting cell pellet was washed twice with PBS. After final wash, cell pellets were resuspended into 200 μL PBS. Cells were stained with a fixable Live/Dead dye for 20 minutes protected from light, and then neutralized and washed with FACS buffer. After the final wash the cells were resuspended in 100 μL wash with FcR block. Labeled antibody cocktail mixes were prepared CD3-PE/CD19-FITC/Alexa-647 or CD3-PE/CD19-FITC/1B2-647 in blocking buffer as well as appropriate controls (single color and FMO). The appropriate amount of antibody was added and incubated with cells protected from light for 30 minutes at room temperature. […]
(§3) FACS Analysis: Data was acquired on an automated cell analyzer (BD Fortessa) by gating on lymphocytes, and single live cells followed by B cell (CD19+-FITC) and T cells (CD3-PE) populations. […] Percent receptor occupancy was calculated from the MFI (median fluorescence intensity) according to the following formula: […]

cell surface CD200 [5] = molecular target: T1, cell surface CD200; experiment: whole-blood CD200 receptor occupancy by flow cytometry, B cells (CD19+); unlabelled antibody incubated overnight, free CD200 against total CD200 (1B2-AF647)
Protocol: as §1, §2, §3

Measured: binding

B1: samalizumab (antibody, human IgG2, kappa, V domains shown)
VH: QVQLQQSGSELKKPGASVKISCKASGYSFTDYIILWVRQNPGKGLEWIGHIDPYYGSSNYNLKFKGRVTITADQSTTTAYMELSSLRSEDTAVYYCGRSKRDYFDYWGQGTTLTVSS
VL: DIQMTQSPSSLSASIGDRVTITCKASQDINSYLSWFQQKPGKAPKLLIYRANRLVDGVPSRFSGSGSGTDYTLTISSLQPEDFAVYYCLQYDEFPYTFGGGTKLEIKR
notes: Humanized anti-human CD200 mAb with G2/G4 constant region; also called ALXN6000; TPP-309
binds: all assays above

B2: TPP-1142 (antibody, human IgG2, kappa, V domains shown)
VH: QVQLVQSGAEVKKPGASVKVSCKASGYSFTDYIILWVRQAPGQRLEWMGHIDPYYGSSNYNLKFKGRVTITRDTSASTAYMELSSLRSEDTAVYYCGRSKRDYFDYWGQGTLVTVSS
VL: B1 VL with I15V, L46S, Y71F, V85T, G100Q
notes: mAb with human G2G4 Fc (effectorless)
binds: cell surface CD200 [1] | cell surface CD200 [3]

B3: TPP-1143 (antibody, human IgG2, kappa, V domains shown)
VH: B2 VH
VL: B1 VL with I15V, L46S, Y71F, A84G, V85T, G100Q
notes: mAb with human G2G4 Fc (effectorless); also called TPP-11143 (as printed once)
binds: all assays above
